This is an account of results in paper PMC5015029.

Protein sequences, listed by entry. Tags and fused reporters are not part of them. Lines headed by an entry give the natural chain unless they say otherwise; changes in a name come on top. Chains listed by the source or under a name are the forms on record and can include a tag or linker. Residues count along the entry.
Anaplastic lymphoma kinase, wild type (WT ALK), expressed in Cos7 cells (Q9UM73, residues 19-1620): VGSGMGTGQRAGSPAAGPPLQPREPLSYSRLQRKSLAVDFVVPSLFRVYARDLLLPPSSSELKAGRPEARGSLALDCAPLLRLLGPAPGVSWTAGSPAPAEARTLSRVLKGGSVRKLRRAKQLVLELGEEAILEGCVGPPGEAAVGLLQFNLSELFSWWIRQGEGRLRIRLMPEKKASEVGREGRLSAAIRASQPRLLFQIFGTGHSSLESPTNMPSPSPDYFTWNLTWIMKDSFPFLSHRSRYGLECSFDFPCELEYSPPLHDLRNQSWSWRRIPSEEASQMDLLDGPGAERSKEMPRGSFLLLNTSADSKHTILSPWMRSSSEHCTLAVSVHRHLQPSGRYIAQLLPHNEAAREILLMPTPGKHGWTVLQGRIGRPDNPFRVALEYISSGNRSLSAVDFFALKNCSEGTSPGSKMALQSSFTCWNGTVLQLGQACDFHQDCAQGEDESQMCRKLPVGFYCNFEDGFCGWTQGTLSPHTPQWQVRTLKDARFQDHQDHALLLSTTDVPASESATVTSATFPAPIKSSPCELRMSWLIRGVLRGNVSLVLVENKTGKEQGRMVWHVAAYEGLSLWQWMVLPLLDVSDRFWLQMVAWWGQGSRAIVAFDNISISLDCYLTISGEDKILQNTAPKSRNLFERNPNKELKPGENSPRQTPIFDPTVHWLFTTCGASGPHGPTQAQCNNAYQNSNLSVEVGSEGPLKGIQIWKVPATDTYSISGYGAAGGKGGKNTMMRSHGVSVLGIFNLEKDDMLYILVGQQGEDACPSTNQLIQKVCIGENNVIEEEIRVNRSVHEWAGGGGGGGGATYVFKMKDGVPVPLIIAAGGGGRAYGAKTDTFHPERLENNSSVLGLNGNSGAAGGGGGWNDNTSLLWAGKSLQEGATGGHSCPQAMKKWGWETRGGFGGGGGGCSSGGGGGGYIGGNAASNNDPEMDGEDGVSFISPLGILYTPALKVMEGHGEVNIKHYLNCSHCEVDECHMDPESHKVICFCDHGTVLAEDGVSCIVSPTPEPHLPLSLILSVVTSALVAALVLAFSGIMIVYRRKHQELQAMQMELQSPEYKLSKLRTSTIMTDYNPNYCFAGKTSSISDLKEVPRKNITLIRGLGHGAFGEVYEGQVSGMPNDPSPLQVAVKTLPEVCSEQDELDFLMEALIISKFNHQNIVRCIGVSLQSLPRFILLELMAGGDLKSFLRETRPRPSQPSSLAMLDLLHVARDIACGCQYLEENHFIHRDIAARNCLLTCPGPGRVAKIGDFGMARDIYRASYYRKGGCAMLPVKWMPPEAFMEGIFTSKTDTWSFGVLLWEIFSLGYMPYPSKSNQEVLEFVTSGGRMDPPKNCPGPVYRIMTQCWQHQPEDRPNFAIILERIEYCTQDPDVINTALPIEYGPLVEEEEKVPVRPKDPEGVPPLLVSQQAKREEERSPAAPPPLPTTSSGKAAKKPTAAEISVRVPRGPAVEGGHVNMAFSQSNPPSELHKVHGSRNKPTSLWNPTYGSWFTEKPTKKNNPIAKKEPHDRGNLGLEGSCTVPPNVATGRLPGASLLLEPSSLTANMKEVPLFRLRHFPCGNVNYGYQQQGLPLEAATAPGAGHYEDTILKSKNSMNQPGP
Anaplastic lymphoma kinase F1174L, expressed in HEK293 cells (Q9UM73, form named): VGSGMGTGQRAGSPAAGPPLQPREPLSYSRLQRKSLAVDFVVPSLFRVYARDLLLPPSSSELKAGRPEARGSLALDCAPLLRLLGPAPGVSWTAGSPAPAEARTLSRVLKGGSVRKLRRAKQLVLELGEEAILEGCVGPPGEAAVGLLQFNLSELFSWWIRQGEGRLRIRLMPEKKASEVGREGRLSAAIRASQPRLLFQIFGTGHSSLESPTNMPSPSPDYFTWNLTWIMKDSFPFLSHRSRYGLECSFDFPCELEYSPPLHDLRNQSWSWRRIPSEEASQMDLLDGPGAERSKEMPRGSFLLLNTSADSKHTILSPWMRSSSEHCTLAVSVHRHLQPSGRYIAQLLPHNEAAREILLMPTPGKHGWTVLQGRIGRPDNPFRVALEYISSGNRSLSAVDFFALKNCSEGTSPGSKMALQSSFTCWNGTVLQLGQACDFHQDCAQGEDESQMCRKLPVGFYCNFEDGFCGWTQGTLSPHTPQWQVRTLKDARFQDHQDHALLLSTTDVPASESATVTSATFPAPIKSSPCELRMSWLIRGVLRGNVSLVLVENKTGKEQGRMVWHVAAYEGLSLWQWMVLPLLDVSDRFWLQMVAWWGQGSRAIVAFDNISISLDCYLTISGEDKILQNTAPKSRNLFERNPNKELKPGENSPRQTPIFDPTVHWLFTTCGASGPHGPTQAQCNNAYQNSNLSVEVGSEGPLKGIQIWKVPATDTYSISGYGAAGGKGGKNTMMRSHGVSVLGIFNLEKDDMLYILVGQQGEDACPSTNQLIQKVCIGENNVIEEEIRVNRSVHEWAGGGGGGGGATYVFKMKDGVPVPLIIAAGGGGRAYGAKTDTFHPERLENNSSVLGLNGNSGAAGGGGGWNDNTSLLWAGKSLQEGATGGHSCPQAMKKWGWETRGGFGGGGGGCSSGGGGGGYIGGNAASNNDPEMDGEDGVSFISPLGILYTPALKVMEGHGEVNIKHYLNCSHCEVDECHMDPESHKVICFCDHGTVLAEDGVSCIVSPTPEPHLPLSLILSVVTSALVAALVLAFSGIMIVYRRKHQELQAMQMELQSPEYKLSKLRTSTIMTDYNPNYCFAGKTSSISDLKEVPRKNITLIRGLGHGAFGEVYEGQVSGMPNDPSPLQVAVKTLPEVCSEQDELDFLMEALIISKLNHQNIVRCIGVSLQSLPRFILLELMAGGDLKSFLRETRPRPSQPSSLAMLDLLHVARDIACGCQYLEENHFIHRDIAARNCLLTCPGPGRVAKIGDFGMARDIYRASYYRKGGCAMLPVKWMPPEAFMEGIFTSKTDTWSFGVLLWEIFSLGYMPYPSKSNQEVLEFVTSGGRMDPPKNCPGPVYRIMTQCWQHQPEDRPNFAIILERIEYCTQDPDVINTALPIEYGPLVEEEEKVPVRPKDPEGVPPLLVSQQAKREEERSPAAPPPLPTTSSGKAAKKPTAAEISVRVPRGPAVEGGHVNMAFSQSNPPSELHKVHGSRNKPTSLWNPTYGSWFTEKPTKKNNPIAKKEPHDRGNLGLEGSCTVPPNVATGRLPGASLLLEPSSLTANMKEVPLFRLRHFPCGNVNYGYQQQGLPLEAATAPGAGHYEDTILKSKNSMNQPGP
Anaplastic lymphoma kinase R1275Q, expressed in HEK293 cells (Q9UM73, form named): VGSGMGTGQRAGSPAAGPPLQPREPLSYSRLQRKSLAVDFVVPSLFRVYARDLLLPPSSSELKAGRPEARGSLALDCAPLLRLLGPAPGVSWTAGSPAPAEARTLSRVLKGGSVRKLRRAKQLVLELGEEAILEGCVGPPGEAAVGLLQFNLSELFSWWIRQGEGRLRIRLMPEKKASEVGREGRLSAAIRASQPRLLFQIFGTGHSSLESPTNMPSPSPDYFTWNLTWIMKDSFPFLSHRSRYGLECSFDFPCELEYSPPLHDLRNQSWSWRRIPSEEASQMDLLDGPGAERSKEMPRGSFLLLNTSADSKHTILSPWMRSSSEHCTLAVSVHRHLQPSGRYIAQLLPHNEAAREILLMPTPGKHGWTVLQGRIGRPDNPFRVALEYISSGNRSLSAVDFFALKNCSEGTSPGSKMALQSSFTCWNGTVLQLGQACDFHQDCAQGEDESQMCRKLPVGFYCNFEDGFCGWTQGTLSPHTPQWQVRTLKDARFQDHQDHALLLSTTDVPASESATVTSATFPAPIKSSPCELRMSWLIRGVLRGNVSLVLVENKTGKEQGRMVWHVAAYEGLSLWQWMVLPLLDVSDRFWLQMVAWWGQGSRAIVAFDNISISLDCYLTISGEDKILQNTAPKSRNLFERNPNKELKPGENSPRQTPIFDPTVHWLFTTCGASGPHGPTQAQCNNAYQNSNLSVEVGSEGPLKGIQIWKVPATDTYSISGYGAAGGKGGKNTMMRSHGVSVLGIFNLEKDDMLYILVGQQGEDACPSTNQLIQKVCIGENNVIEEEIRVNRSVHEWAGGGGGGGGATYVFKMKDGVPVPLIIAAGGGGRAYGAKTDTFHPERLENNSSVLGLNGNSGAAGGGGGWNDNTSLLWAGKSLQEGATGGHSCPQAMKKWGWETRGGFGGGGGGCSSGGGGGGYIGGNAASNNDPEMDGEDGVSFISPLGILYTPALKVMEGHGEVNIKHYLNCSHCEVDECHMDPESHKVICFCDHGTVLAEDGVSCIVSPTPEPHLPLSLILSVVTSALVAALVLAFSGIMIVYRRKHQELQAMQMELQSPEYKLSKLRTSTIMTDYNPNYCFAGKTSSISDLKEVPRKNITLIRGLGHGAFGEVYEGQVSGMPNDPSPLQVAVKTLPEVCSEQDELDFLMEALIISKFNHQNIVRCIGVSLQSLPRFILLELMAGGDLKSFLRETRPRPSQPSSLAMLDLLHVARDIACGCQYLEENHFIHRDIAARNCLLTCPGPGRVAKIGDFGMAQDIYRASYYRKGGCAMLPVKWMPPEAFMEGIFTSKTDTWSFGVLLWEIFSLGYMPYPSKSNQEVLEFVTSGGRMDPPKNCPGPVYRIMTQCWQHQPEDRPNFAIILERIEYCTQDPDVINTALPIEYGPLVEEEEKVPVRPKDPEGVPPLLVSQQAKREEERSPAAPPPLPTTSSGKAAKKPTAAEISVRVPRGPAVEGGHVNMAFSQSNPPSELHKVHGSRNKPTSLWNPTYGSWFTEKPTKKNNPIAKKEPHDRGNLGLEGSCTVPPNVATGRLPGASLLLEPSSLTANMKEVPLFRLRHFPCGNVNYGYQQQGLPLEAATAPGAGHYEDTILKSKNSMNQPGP

No constants are given. Whether binding was seen depends on the method and setting. For some of these results: In cells and extracts the contact can be indirect. Some results given as binding are weak or reduced against the parent protein; the word gives no strength. For some of these results: Tags and fused reporters may be left off the sequences shown.

The target of test [1] is Neuronal leucine-rich repeat 1 (NLRR1), endogenous in CHP134 and SMS-SAN cells (human (endogenous in CHP134 and SMS-SAN)) (UniProt Q6UXK5). Nature of the test: co-IP; endogenous proteins in CHP134 and SMS-SAN cells; CHAPS lysis, IP buffer, 4 °C, protein A agarose; normal rabbit IgG as negative control; western blotting. For orientation: A western blot detects proteins with antibodies after separation by electrophoresis.

Test [2] concerns the target Intact extracellular domain of NLRR1 conjugated with human IgG1 Fc (exN1-Fc) (human) (UniProt Q6UXK5). Put plainly: pull-down; NB-39-nu cells incubated 1 hour at 37 °C in conditioned medium with Fc chimeras from HEK293 cells; washed, lysed in CHAPS buffer, 1 mg reacted with protein A agarose in IP buffer overnight at 4 °C; western blotting.
Test [3] concerns the target T1, ΔL-Ig-Fc, NLRR1 FNIII domain alone conjugated with human IgG1 Fc (human) (UniProt Q6UXK5).
T1 sequence: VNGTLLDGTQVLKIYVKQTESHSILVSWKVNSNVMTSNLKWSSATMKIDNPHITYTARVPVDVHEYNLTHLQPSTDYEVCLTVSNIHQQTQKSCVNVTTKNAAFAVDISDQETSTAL
The description is as above.

Test [4] has as its target T2, ΔLRR-Fc, NLRR1 ectodomain without the LRR domain (Ig-like and FNIII domains) conjugated with human IgG1 Fc (human) (UniProt Q6UXK5).
T2 sequence: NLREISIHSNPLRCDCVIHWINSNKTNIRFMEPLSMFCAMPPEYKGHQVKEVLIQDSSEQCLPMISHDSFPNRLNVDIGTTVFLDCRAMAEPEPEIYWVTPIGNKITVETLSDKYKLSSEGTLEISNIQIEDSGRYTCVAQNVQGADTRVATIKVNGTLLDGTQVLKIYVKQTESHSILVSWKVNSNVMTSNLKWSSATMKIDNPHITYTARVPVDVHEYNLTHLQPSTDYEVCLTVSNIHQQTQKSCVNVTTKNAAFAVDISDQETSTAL
The test is described as above.

Test [5] concerns the target Neuronal leucine-rich repeat 1 tagged with HA (NLRR1-HA), expressed in HEK293 cells (human) (UniProt Q6UXK5). Nature of the test: co-IP; HEK293 cells transiently co-expressing NLRR1-HA and ALK (WT, F1174L or R1275Q); CHAPS lysis, IP buffer with 150 mM NaCl and 1% Nonidet P-40, 4 °C, protein A agarose; western blotting; also after 5 μg/ml tunicamycin for 8 hours.
Test [6] deals with Neuronal leucine-rich repeat 1 tagged with HA (NLRR1-HA), expressed in Cos7 cells (human) (UniProt Q6UXK5). Nature of the test: co-IP; Cos7 cells transfected with either NLRR1-HA or ALK, co-cultured at the same density for 24 hours; immunoprecipitation with a 3,3'-dithiobis(sulfosuccinimidyl propionate) cross-linking reaction.
The target in test [7] is Anaplastic lymphoma kinase, wild type (WT ALK), expressed in Cos7 cells (human) (UniProt Q9UM73). Put plainly: alkaline phosphatase fusion binding to cells; transfected Cos7 cells incubated 1 hour at room temperature in ultrafiltrated medium from HEK293 cells transfected with exN1-AP; after washing and lysis AP activity in the lysates, standardised to the control.

“Anaplastic lymphoma kinase (ALK) F1174L, endogenous in SMS-SAN cells (from UniProt Q9UM73 19-1620) (receptor)”: the binding result in test [1] is on record as “binds”.

Consider “Anaplastic lymphoma kinase (ALK), endogenous in CHP134 cells (from UniProt Q9UM73 19-1620) (receptor)”, for which the binding entry in test [1] is on record as “binds”. For the substance “Anaplastic lymphoma kinase (ALK), endogenous in NB-39-nu cells (from UniProt Q9UM73 19-1620) (receptor)”, the binding entry in test [2], in test [3] and in test [4] was “binds” in each case. Consider “Anaplastic lymphoma kinase F1174L, expressed in HEK293 cells (from UniProt Q9UM73 19-1620) (receptor)”, for which the binding result in test [5] is “binds”. On the same count and under the same terms, then “Anaplastic lymphoma kinase R1275Q, expressed in HEK293 cells (from UniProt Q9UM73 19-1620) (receptor)”, with “binds”. For “Anaplastic lymphoma kinase, wild type (WT ALK), expressed in Cos7 cells (from UniProt Q9UM73 19-1620) (receptor)”, in test [6], the binding entry was “binds”. For the substance “Anaplastic lymphoma kinase, wild type (WT ALK), expressed in HEK293 cells (from UniProt Q9UM73 19-1620) (receptor)”, the binding result in test [5] is “binds”. Consider “Intact extracellular domain of NLRR1 fused with human placental alkaline phosphatase (exN1-AP) (from UniProt Q6UXK5 26-632) (domain or fragment)”, for which the binding entry in test [7] is on record as “binds”.
